From patent publication US20040152161A1 come the findings set out here.

Chains of the proteins cited; added tags and fusions are not shown. Lines headed by an entry give the natural chain unless they say otherwise; changes in a name come on top.
UniProt Q5VWK5: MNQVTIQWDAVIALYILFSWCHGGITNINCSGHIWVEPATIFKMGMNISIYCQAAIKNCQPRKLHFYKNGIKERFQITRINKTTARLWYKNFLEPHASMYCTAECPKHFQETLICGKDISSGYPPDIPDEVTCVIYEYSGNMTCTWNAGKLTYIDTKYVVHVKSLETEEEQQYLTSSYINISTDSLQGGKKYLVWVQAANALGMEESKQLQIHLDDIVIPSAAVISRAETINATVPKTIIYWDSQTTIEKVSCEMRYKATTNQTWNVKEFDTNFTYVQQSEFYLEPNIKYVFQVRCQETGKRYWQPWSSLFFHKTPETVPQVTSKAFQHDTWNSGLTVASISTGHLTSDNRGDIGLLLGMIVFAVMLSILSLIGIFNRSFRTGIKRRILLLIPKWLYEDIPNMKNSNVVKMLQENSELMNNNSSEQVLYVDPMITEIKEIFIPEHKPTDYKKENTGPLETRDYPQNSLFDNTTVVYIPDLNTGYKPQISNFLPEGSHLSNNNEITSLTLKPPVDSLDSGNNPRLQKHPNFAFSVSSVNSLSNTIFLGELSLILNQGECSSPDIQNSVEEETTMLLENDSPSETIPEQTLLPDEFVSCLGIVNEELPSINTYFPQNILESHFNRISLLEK
UniProt Q8NI17: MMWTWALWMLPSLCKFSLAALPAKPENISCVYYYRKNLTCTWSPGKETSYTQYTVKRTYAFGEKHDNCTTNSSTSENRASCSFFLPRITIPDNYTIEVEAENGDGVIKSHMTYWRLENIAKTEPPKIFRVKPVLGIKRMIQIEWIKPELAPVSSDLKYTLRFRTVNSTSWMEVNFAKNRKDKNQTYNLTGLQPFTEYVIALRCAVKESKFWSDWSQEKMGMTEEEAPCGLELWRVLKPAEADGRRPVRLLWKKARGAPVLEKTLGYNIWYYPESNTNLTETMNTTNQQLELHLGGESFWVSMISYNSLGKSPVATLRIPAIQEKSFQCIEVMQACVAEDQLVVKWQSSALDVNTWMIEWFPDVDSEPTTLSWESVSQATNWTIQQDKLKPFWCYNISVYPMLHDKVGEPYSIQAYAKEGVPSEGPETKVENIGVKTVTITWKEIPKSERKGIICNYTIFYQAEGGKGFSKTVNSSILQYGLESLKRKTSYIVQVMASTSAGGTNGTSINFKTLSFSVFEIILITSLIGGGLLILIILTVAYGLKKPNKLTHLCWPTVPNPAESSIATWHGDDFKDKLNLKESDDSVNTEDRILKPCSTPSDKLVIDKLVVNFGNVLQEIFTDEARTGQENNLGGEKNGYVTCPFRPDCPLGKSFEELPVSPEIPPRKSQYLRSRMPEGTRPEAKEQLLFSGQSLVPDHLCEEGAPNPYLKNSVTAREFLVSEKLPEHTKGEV

Test [1] deals with HPR2 polypeptide (hematopoietin receptor HPR2), on cells (human) (UniProt Q5VWK5). As to the kind of experiment: FACS on cells endogenously expressing HPR1 and HPR2 (COS-1, 293MSR, CB23, MP-1).
Test [2] has as its target HPR1 polypeptide (hematopoietin receptor HPR1), on cells (human) (UniProt Q8NI17). The description is as above.

These are yes or no findings as the source states them, for the method shown. Some results given as binding are weak or reduced against the parent protein; the word gives no strength. Sequences can lack the tags named with a protein.

B1: EBI-3-Fc fusion polypeptide (Fc fusion, UniProt Q14213 21-229, looked up, not shown: a dimerising Fc or GST)
chain: RKGPPAALTLPRVQCRASRYPIAVDCSWTLPPAPNSTSPVSFIATYRLGMAARGHSWPCLQQTPTSTSCTITDVQLFSMAPYVLNVTAVHPWGSSSSFVPFITEHIIKPDPPEGVRLSPLAERQLQVQWEPPGSWPFPEIFSLKYWIRYKRQGAARFHRVGPIEATSFILRAVRPRARYYVQVAAQDLTDYGELSDWSLPATATMSLGK
Consider B1, for which the binding result in test [1] and in test [2] was “binds” throughout.
